From paper PMC5838229

Assays:
Flag-DNAJC5 (secreted) = molecular target: T1, Flag-DNAJC5 (secreted) (UniProt Q9H3Z4); assay: co-IP; conditioned medium of transfected 293T cells; IP with Flag antibodies (Flag-DNAJC5 omitted as negative control) or, reciprocally, with GFP antibody; immunoblotting
T1 sequence: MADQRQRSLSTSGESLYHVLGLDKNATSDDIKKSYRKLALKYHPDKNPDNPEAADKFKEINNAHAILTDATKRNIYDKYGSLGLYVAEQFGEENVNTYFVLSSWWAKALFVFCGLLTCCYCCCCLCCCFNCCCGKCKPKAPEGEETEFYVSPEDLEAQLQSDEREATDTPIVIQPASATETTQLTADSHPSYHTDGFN

HA-GFP1-10 (secreted) = assay: as above

binding (Flag-DNAJC5 (secreted)): binds
Molecule: HA-GFP1-10 (secreted) (domain or fragment)

binding (HA-GFP1-10 (secreted)): binds
B1: Flag-DNAJC5 (secreted) (protein, UniProt Q9H3Z4 1-198)
chain: T1 sequence

Results are given in words; binding and its absence hold for the method and conditions named. In cells and extracts the contact can be indirect. Binding can be weak; no strength is given. Where a sequence is shown, tags or fusion partners need not be part of it. Each block holds one molecule with its values, some of them ahead of it.
